Experimental data as given in paper PMC8472134.
No constants are given. Whether binding was seen depends on the method and setting. Some binding calls cover weakened binding; strength is not graded here. Where a sequence is shown, tags or fusion partners need not be part of it. Values belong to the binder of their own block, whether it stands above or below them.

Target: T1, N-Myc Downregulated like 1 (NDL1) (Arabidopsis) (UniProt Q9FJT7)
T1 sequence: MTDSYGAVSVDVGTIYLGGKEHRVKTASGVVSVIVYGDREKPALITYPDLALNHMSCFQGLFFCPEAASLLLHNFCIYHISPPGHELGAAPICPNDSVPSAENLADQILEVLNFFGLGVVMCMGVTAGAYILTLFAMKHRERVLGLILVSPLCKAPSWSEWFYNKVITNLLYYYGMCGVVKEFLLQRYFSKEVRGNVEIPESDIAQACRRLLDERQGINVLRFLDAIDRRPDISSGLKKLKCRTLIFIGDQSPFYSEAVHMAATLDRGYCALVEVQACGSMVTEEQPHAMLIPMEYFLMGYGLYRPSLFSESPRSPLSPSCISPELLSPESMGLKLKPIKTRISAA
Assay: two-hybrid; Gal4-based two-hybrid in yeast AH109; NDL1 with Gal4 DNA-binding domain (pAS-attR), partner with Gal4 activation domain (pACTGW-attR); double transformants on SD/-Leu/-Trp; colony-lift filter beta-galactosidase assay with X-gal, 14-16 h at 30 °C, blue colonies scored positive; NDL1 alone as negative control

- binding: binds
B1: IDH-V (protein, UniProt Q945K7 1-374)
chain: MTMAANLARRLIGNRSTQILGAVNSSSGAASSVARAFCSSTTPITATLFPGDGIGPEIAESVKKVFTTAGVPIEWEEHYVGTEIDPRTQSFLTWESLESVRRNKVGLKGPMATPIGKGHRSLNLTLRKELNLYANVRPCYSLPGYKTRYDDVDLITIRENTEGEYSGLEHQVVRGVVESLKIITRQASLRVAEYAFLYAKTHGRERVSAIHKANIMQKTDGLFLKCCREVAEKYPEITYEEVVIDNCCMMLVKNPALFDVLVMPNLYGDIISDLCAGLVGGLGLTPSCNIGEDGVALAEAVHGSAPDIAGKNLANPTALLLSGVMMLRHLKFNEQAEQIHSAIINTIAEGKYRTADLGGSSTTTEFTKAICDHL

- binding: binds
B2: ANNAT1 (protein, UniProt Q9SYT0 1-317)
chain: MATLKVSDSVPAPSDDAEQLRTAFEGWGTNEDLIISILAHRSAEQRKVIRQAYHETYGEDLLKTLDKELSNDFERAILLWTLEPGERDALLANEATKRWTSSNQVLMEVACTRTSTQLLHARQAYHARYKKSLEEDVAHHTTGDFRKLLVSLVTSYRYEGDEVNMTLAKQEAKLVHEKIKDKHYNDEDVIRILSTRSKAQINATFNRYQDDHGEEILKSLEEGDDDDKFLALLRSTIQCLTRPELYFVDVLRSAINKTGTDEGALTRIVTTRAEIDLKVIGEEYQRRNSIPLEKAITKDTRGDYEKMLVALLGEDDA
